This is an account of results in the supplement of paper PMC6411743.

By UniProt entry, the sequences of proteins in these tests, tags left out. Where a name states a change or a piece, a line headed by the entry shows the natural chain unless it says otherwise.
UniProt Q2TB10: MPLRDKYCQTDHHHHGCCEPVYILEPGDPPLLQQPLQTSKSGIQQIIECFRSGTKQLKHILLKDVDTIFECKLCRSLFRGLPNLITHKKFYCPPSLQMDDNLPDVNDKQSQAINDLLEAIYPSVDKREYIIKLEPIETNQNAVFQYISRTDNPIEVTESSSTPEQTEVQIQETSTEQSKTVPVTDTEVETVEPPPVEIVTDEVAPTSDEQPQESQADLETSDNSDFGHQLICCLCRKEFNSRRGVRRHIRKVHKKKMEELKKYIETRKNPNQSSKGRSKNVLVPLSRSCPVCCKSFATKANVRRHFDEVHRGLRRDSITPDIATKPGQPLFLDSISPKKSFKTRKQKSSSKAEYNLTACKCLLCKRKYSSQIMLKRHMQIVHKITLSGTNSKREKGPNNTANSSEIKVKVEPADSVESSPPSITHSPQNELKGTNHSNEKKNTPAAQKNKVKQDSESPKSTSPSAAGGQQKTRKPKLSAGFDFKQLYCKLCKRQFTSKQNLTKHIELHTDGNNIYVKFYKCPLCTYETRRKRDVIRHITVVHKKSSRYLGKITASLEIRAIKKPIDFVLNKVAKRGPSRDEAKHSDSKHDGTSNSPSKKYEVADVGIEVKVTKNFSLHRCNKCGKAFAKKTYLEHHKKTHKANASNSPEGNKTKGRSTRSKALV
UniProt Q15397: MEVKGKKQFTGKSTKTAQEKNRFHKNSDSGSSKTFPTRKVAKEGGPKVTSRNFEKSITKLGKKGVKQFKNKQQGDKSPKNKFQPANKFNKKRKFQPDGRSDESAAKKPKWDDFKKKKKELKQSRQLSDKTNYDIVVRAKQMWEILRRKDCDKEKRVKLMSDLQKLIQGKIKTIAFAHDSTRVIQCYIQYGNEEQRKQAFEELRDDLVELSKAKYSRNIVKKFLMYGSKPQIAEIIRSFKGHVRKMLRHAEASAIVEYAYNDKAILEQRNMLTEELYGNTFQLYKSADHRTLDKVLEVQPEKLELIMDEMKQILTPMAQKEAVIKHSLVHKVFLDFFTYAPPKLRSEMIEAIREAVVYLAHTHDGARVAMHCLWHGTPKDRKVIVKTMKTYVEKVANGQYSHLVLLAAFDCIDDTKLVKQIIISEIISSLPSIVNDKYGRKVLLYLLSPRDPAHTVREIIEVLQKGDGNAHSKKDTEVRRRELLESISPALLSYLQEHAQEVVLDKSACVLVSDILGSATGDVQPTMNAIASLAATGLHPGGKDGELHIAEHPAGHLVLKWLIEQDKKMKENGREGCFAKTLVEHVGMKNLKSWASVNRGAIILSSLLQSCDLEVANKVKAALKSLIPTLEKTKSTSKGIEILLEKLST
UniProt Q9Y5K5, whole entry: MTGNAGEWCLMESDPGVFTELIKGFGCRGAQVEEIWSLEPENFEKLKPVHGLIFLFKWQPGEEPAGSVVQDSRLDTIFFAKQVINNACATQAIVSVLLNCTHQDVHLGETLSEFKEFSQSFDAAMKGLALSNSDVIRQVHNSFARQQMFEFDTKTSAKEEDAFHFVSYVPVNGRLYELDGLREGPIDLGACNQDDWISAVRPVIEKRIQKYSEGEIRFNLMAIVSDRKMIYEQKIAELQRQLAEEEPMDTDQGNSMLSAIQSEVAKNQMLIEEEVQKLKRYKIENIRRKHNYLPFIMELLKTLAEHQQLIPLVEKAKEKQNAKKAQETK
UniProt Q15149: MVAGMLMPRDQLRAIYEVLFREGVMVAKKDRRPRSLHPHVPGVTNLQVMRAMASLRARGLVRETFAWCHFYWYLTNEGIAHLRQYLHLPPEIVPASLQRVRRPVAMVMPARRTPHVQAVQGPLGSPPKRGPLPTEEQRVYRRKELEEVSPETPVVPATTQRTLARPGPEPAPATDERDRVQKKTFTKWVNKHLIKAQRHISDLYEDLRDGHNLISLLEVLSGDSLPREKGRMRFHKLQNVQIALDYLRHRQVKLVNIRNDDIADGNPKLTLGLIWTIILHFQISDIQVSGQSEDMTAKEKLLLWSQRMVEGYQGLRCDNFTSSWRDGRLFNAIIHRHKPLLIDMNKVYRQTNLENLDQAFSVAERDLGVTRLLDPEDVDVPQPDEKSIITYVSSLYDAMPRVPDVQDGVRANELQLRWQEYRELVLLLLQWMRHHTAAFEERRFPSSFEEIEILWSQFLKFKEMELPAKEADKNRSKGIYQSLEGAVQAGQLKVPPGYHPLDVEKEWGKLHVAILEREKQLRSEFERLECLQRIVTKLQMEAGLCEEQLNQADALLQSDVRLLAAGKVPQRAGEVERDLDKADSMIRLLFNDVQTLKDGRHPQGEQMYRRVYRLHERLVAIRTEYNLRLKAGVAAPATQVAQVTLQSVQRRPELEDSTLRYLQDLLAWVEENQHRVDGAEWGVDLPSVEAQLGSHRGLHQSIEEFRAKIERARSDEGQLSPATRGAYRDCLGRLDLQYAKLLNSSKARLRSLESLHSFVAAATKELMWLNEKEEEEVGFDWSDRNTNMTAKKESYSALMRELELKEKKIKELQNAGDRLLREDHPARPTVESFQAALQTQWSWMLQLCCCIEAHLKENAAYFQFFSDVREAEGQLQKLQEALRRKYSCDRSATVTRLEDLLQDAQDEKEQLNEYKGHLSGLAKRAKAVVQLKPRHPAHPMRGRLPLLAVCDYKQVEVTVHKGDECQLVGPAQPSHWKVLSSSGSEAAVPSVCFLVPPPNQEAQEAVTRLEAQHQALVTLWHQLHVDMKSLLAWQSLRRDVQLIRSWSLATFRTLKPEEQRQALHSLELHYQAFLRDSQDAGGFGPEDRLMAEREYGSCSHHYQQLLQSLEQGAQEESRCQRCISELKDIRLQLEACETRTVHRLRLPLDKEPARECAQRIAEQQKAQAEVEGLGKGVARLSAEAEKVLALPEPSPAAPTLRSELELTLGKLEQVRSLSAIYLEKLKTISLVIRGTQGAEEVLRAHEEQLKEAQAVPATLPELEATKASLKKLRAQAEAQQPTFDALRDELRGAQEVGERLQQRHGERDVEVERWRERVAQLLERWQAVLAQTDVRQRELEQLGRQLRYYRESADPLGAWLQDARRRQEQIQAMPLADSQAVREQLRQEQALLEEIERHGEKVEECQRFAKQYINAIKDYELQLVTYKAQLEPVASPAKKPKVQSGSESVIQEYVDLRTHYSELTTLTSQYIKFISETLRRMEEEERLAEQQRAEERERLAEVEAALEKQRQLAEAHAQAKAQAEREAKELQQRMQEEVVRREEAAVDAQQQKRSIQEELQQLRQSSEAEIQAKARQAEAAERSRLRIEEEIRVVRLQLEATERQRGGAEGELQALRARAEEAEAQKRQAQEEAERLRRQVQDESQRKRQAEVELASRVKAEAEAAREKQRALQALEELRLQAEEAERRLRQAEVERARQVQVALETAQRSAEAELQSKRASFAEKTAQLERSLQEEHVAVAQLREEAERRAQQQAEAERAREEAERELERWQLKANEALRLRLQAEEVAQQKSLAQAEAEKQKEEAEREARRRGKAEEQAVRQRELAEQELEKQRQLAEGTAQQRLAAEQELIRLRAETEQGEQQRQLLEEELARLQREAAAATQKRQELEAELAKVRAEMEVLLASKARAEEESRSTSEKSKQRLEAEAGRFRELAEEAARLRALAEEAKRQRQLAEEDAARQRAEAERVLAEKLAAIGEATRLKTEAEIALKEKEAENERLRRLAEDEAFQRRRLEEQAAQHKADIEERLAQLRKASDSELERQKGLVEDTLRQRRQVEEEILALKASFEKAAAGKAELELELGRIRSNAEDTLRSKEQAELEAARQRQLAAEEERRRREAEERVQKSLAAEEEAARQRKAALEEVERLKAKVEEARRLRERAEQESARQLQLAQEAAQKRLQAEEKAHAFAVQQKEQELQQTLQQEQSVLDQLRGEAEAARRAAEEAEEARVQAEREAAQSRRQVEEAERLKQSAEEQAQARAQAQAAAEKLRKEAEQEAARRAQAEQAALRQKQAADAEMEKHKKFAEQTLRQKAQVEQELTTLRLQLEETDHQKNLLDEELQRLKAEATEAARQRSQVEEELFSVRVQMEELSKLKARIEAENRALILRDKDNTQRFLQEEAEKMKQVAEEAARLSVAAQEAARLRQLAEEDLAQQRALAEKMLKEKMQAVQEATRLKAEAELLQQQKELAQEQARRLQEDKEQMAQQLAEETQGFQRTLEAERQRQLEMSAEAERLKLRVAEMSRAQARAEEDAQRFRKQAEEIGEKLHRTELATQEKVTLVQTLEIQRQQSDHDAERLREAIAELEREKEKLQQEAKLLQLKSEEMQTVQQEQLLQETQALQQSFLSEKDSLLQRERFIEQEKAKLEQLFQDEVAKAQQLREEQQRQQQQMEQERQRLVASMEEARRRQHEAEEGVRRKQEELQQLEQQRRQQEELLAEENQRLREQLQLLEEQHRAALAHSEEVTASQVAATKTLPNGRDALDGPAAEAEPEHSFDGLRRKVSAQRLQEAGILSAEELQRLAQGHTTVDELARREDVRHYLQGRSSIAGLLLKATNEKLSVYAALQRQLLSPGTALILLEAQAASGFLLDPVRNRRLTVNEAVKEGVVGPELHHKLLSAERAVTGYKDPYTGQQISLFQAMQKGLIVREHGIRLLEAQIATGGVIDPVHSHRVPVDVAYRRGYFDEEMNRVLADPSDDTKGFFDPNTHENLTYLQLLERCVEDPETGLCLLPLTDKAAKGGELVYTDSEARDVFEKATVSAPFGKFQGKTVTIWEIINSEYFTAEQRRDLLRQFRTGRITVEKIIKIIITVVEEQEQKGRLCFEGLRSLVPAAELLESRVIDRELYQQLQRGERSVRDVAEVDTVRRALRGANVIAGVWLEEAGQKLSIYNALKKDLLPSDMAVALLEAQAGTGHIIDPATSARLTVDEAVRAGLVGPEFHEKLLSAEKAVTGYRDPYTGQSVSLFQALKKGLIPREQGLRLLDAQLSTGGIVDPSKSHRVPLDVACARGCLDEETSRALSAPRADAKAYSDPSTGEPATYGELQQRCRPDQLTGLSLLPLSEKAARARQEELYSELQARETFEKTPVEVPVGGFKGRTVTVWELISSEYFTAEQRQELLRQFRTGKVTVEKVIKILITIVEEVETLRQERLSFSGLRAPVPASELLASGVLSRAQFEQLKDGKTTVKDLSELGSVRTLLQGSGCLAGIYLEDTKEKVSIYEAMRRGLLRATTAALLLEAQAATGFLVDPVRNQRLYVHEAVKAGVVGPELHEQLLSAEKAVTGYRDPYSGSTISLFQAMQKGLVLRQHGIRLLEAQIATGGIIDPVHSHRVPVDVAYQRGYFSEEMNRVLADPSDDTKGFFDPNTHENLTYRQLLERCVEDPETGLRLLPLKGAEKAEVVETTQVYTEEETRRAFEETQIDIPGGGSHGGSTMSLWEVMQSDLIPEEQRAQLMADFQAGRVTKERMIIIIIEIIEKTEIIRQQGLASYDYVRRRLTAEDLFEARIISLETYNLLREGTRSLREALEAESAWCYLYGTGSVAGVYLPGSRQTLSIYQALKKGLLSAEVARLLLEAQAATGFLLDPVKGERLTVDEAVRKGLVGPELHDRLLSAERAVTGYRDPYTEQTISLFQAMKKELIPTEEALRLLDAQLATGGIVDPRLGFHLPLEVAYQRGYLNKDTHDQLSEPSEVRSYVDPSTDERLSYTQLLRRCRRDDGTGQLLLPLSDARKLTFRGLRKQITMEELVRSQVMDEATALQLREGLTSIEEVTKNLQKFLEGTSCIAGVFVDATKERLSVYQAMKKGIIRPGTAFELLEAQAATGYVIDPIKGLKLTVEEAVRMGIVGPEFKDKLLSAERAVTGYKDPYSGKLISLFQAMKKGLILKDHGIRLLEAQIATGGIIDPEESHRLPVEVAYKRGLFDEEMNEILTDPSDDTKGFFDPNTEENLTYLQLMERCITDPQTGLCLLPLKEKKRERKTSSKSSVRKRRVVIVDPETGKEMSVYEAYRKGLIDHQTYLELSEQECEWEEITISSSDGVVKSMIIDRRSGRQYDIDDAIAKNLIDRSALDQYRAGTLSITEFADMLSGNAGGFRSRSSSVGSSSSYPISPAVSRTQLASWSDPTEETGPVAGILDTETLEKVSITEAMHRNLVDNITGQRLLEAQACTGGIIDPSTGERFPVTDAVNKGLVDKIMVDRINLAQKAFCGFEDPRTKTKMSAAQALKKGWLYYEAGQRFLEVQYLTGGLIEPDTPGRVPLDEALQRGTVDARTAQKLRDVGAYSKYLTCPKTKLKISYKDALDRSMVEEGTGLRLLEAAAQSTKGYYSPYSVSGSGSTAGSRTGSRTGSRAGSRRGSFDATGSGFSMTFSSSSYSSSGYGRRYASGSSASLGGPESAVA

± gives the standard deviation of the averaged measurements. The list shows a part of the results.

Compound in this assay: Nc1nc2c(ncn2[C@@H]2O[C@H](COP(=O)(O)OP(=O)(O)OP(=O)(O)O)[C@@H](O)[C@H]2O)c(=O)[nH]1 [guanosine triphosphate]
Briefly: NP40-soluble protein abundance relative to vehicle (solubility fold change) (ratio); higher = more soluble protein in presence of GTP. Put shortly:
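Across three independent experiments, values are fold changes against the detergent-processed vehicle for each replicate, based on vsn-normalised intensities. The samples were Jurkat crude lysate treated with eight concentrations (0.1 to 10 mM) for 10 min at room temperature and then 3 min at 37 °C. Lysate was solubilised with 0.8% NP40 and benzonase, ultracentrifuged, and the supernatant analysed by TMT-labelled LC-MS/MS.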

Take “Q5QPA5 and related entries (UniProt Q9NVS2)”: the NP40-soluble protein abundance was found to be 1.06 ± 0.21 (concentration: 0.1mM); 1.2 ± 0.43 (concentration: 0.5mM); 1.29 ± 0.29 (concentration: 1mM); 1.45 ± 0.41 (concentration: 2mM); 1.43 ± 0.44 (concentration: 4mM); 1.43 ± 0.47 (concentration: 6mM). In addition, the NP40-soluble protein abundance is 1.35 ± 0.44 (concentration: 8mM) and 1.35 ± 0.49 (concentration: 10mM).

On to UniProt Q2TB10 and related entries, for which the NP40-soluble protein abundance (concentration: 0.1mM) stood at 1.04 ± 0.1; the NP40-soluble protein abundance (concentration: 0.5mM) was determined as 1.15 ± 0.14; the NP40-soluble protein abundance (concentration: 1mM) was determined as 1.15 ± 0.12; the NP40-soluble protein abundance (concentration: 2mM) was 1.36 ± 0.28; the NP40-soluble protein abundance (concentration: 4mM) came out at 1.68 ± 0.48; the NP40-soluble protein abundance (concentration: 6mM) turned out to be 1.9 ± 0.44. Also, the NP40-soluble protein abundance by setting is: (concentration: 8mM) 2.04 ± 0.64; (concentration: 10mM) 2.54 ± 1.1.

As to “Q1RLN5 and related entries (UniProt Q8IWW6)”, the NP40-soluble protein abundance was 1 ± 0.046 (concentration: 0.1mM); 0.953 ± 0.034 (concentration: 0.5mM); 0.975 ± 0.021 (concentration: 1mM); 0.956 ± 0.03 (concentration: 2mM); 0.995 ± 0.073 (concentration: 4mM); 0.959 ± 0.055 (concentration: 6mM). Further, the NP40-soluble protein abundance is, setting by setting: (concentration: 8mM) 1.07 ± 0.06; (concentration: 10mM) 1.03 ± 0.068.

As for NONO (UniProt Q15233), the NP40-soluble protein abundance runs as follows: (concentration: 0.1mM) 1.01 ± 0.054; (concentration: 0.5mM) 1.01 ± 0.056; (concentration: 1mM) 1.02 ± 0.11; (concentration: 2mM) 1.12 ± 0.12; (concentration: 4mM) 1.34 ± 0.16; (concentration: 6mM) 1.51 ± 0.16. Further, the NP40-soluble protein abundance (concentration: 8mM) is 1.58 ± 0.15 and the NP40-soluble protein abundance (concentration: 10mM) was determined as 1.55 ± 0.2.

In the case of UniProt Q15424 and related entries, the NP40-soluble protein abundance was 0.958 ± 0.048 (concentration: 0.1mM); 0.938 ± 0.052 (concentration: 0.5mM); 1.04 ± 0.039 (concentration: 1mM); 1.09 ± 0.081 (concentration: 2mM); 1.19 ± 0.066 (concentration: 4mM); 1.25 ± 0.041 (concentration: 6mM). Besides, the NP40-soluble protein abundance is, setting by setting: (concentration: 8mM) 1.38 ± 0.083; (concentration: 10mM) 1.44 ± 0.083.

Consider UniProt Q14687 and related entries, for which the NP40-soluble protein abundance (concentration: 0.1mM) came out at 1.01 ± 0.034; the NP40-soluble protein abundance (concentration: 0.5mM) was 1.05 ± 0.041; the NP40-soluble protein abundance (concentration: 1mM) came out at 1.12 ± 0.048; the NP40-soluble protein abundance (concentration: 2mM) worked out at 1.11 ± 0.081; the NP40-soluble protein abundance (concentration: 4mM) came to 1.14 ± 0.1; the NP40-soluble protein abundance (concentration: 6mM) was found to be 1.13 ± 0.093. In addition, the NP40-soluble protein abundance runs as follows: (concentration: 8mM) 1.15 ± 0.15; (concentration: 10mM) 1.18 ± 0.14.

With UniProt Q5SRE5 and related entries, the NP40-soluble protein abundance is, setting by setting: (concentration: 0.1mM) 1.17 ± 0.11; (concentration: 0.5mM) 1.13 ± 0.051; (concentration: 1mM) 1.03 ± 0.13; (concentration: 2mM) 1.01 ± 0.13; (concentration: 4mM) 1.13 ± 0.024; (concentration: 6mM) 1.11 ± 0.088. For the same target, the NP40-soluble protein abundance reads like this: (concentration: 8mM) 1.03 ± 0.029; (concentration: 10mM) 1.08 ± 0.046.

For the target UniProt Q5T5C0 and related entries, the NP40-soluble protein abundance by setting is: (concentration: 0.1mM) 0.984 ± 0.015; (concentration: 0.5mM) 1.08 ± 0.016; (concentration: 1mM) 1 ± 0.1; (concentration: 2mM) 0.966 ± 0.056; (concentration: 4mM) 0.962 ± 0.0053; (concentration: 6mM) 0.977 ± 0.12. Further, the NP40-soluble protein abundance by setting is: (concentration: 8mM) 1.03 ± 0.088; (concentration: 10mM) 1 ± 0.033.

UniProt Q15397: the NP40-soluble protein abundance (concentration: 0.1mM) stood at 1.07 ± 0.042; the NP40-soluble protein abundance (concentration: 0.5mM) came out at 1.04 ± 0.05; the NP40-soluble protein abundance (concentration: 1mM) was 1.12 ± 0.046; the NP40-soluble protein abundance (concentration: 2mM) stood at 1.27 ± 0.036; the NP40-soluble protein abundance (concentration: 4mM) was determined as 1.31 ± 0.021; the NP40-soluble protein abundance (concentration: 6mM) stood at 1.32 ± 0.027. The NP40-soluble protein abundance reads like this: (concentration: 8mM) 1.31 ± 0.071; (concentration: 10mM) 1.39 ± 0.028.

In the case of “Q5LJA5 and related entries (UniProt Q9Y5K5)”, the NP40-soluble protein abundance stood at 0.963 ± 0.056 (concentration: 0.1mM); 0.96 ± 0.034 (concentration: 0.5mM); 0.938 ± 0.049 (concentration: 1mM); 0.946 ± 0.026 (concentration: 2mM); 0.939 ± 0.034 (concentration: 4mM); 0.927 ± 0.023 (concentration: 6mM). In addition, the NP40-soluble protein abundance runs as follows: (concentration: 8mM) 0.921 ± 0.043; (concentration: 10mM) 0.938 ± 0.035.

UniProt Q15257 and related entries: the NP40-soluble protein abundance (concentration: 0.1mM) turned out to be 0.989 ± 0.016; the NP40-soluble protein abundance (concentration: 0.5mM) was 0.9682 ± 0.0072; the NP40-soluble protein abundance (concentration: 1mM) amounted to 0.927 ± 0.036; the NP40-soluble protein abundance (concentration: 2mM) worked out at 0.891 ± 0.051; the NP40-soluble protein abundance (concentration: 4mM) was 0.864 ± 0.076; the NP40-soluble protein abundance (concentration: 6mM) was found to be 0.853 ± 0.058. For the same target, the NP40-soluble protein abundance reads like this: (concentration: 8mM) 0.866 ± 0.067; (concentration: 10mM) 0.836 ± 0.091.

With NCOA6 (UniProt Q14686), the NP40-soluble protein abundance was 1.05 ± 0.064 (concentration: 0.1mM); 1.03 ± 0.042 (concentration: 0.5mM); 1.06 ± 0.016 (concentration: 1mM); 1.09 ± 0.063 (concentration: 2mM); 1.07 ± 0.061 (concentration: 4mM); 1.1 ± 0.03 (concentration: 6mM). The NP40-soluble protein abundance amounted to 1.13 ± 0.082 (concentration: 8mM) and 1.1 ± 0.025 (concentration: 10mM).

Consider LBR (UniProt Q14739), for which the NP40-soluble protein abundance stood at 0.978 ± 0.013 (concentration: 0.1mM); 0.942 ± 0.061 (concentration: 0.5mM); 0.909 ± 0.064 (concentration: 1mM); 0.845 ± 0.036 (concentration: 2mM); 0.783 ± 0.058 (concentration: 4mM); 0.767 ± 0.039 (concentration: 6mM). In addition, the NP40-soluble protein abundance reads like this: (concentration: 8mM) 0.785 ± 0.013; (concentration: 10mM) 0.769 ± 0.013.

“Q5JY02 and related entries (UniProt Q7Z4G4)”: the NP40-soluble protein abundance came to 0.965 ± 0.089 (concentration: 0.1mM); 0.994 ± 0.13 (concentration: 0.5mM); 1.05 ± 0.024 (concentration: 1mM); 0.925 ± 0.1 (concentration: 2mM); 0.946 ± 0.068 (concentration: 4mM); 0.982 ± 0.035 (concentration: 6mM). Further, the NP40-soluble protein abundance turned out to be 1.01 ± 0.011 (concentration: 8mM) and 0.945 ± 0.064 (concentration: 10mM).

On to UniProt Q15149 and related entries, for which the NP40-soluble protein abundance worked out at 1.06 ± 0.038 (concentration: 0.1mM); 1.18 ± 0.042 (concentration: 0.5mM); 1.27 ± 0.046 (concentration: 1mM); 1.35 ± 0.036 (concentration: 2mM); 1.42 ± 0.079 (concentration: 4mM); 1.43 ± 0.083 (concentration: 6mM). Moreover, the NP40-soluble protein abundance (concentration: 8mM) is 1.48 ± 0.12 and the NP40-soluble protein abundance (concentration: 10mM) was 1.42 ± 0.098.
